Further values from the same series stand in other lists.
Assays:
Assay type in all cases: cell-based
[1] = molecular target: Histone-lysine N-methyltransferase EZH2 (Mus musculus) (UniProt Q61188); assay: Inhibition of EZH2 in mouse B16-F1 migrating cells assessed as fold change in H3K27me3-dependent regulated Spry4-mRNA expression at 3 uM measured by ChIP-seq analysis relative to control cells
[2] = molecular target: Histone-lysine N-methyltransferase EZH2 (Mus musculus) (UniProt Q61188); assay: Inhibition of EZH2 in mouse B16-F1 migrating cells assessed as fold change in H3K27me3-buffered regulated Csrp2-mRNA expression at 3 uM measured by ChIP-seq analysis relative to control cells
[3] = molecular target: Histone-lysine N-methyltransferase EZH2 (Mus musculus) (UniProt Q61188); assay: Inhibition of EZH2 in mouse B16-F1 migrating cells assessed as fold change in H3K27me3-buffered regulated Haus3-mRNA expression at 3 uM measured by ChIP-seq analysis relative to control cells
[4] = molecular target: Histone-lysine N-methyltransferase EZH2 (Mus musculus) (UniProt Q61188); assay: Inhibition of EZH2 in mouse B16-F1 migrating cells assessed as fold change in H3K27me3-buffered regulated Rock1-mRNA expression at 3 uM measured by ChIP-seq analysis relative to control cells
[5] = molecular target: Histone-lysine N-methyltransferase EZH2 (Mus musculus) (UniProt Q61188); assay: Inhibition of EZH2 in mouse B16-F1 migrating cells assessed as fold change in H3K27me3-buffered regulated Sema6a-mRNA expression at 3 uM measured by ChIP-seq analysis relative to control cells
[6] = molecular target: Histone-lysine N-methyltransferase EZH2 (Mus musculus) (UniProt Q61188); assay: Inhibition of EZH2 in mouse B16-F1 migrating cells assessed as fold change in H3K27me3-buffered regulated Cep192-mRNA expression at 3 uM measured by ChIP-seq analysis relative to control cells
[7] = molecular target: T1, RNA polymerase II (Mus musculus) (UniProt P08775+Q8CFI7+P97760+A0A3Q4L2S8+Q80UW8+P61219+P62488+Q923G2+P60898+O08740+Q63871+P62876); assay: Inhibition of RNA polymerase II in mouse B16-F1 migrating cells assessed as fold change in Htra3-RNA stability at 0.1 mM measured by ChIP-seq analysis relative to control cells
[8] = molecular target: T1, RNA polymerase II (Mus musculus); assay: Inhibition of RNA polymerase II in mouse B16-F1 migrating cells assessed as fold change in Emp3-RNA stability at 0.1 mM measured by ChIP-seq analysis relative to control cells
[9] = molecular target: T1, RNA polymerase II (Mus musculus); assay: Inhibition of RNA polymerase II in mouse B16-F1 migrating cells assessed as fold change in Fam50a-RNA stability at 0.1 mM measured by ChIP-seq analysis relative to control cells
[10] = molecular target: T1, RNA polymerase II (Mus musculus); assay: Inhibition of RNA polymerase II in mouse B16-F1 migrating cells assessed as fold change in Rp9-RNA stability at 0.1 mM measured by ChIP-seq analysis relative to control cells
[11] = molecular target: T1, RNA polymerase II (Mus musculus); assay: Inhibition of RNA polymerase II in mouse B16-F1 migrating cells assessed as fold change in Ube2m-RNA stability at 0.1 mM measured by ChIP-seq analysis relative to control cells
[12] = molecular target: T1, RNA polymerase II (Mus musculus); assay: Inhibition of RNA polymerase II in mouse B16-F1 migrating cells assessed as fold change in Pmf1-RNA stability at 0.1 mM measured by ChIP-seq analysis relative to control cells
[13] = molecular target: T1, RNA polymerase II (Mus musculus); assay: Inhibition of RNA polymerase II in mouse B16-F1 migrating cells assessed as fold change in Csnk2b-RNA stability at 0.1 mM measured by ChIP-seq analysis relative to control cells
[14] = molecular target: T1, RNA polymerase II (Mus musculus); assay: Inhibition of RNA polymerase II in mouse B16-F1 migrating cells assessed as fold change in Timm22-RNA stability at 0.1 mM measured by ChIP-seq analysis relative to control cells
[15] = molecular target: T1, RNA polymerase II (Mus musculus); assay: Inhibition of RNA polymerase II in mouse B16-F1 migrating cells assessed as fold change in Rassf3-RNA stability at 0.1 mM measured by ChIP-seq analysis relative to control cells
[16] = molecular target: T1, RNA polymerase II (Mus musculus); assay: Inhibition of RNA polymerase II in mouse B16-F1 migrating cells assessed as fold change in Aifm1-RNA stability at 0.1 mM measured by ChIP-seq analysis relative to control cells
[17] = molecular target: T1, RNA polymerase II (Mus musculus); assay: Inhibition of RNA polymerase II in mouse B16-F1 migrating cells assessed as fold change in Las1l-RNA stability at 0.1 mM measured by ChIP-seq analysis relative to control cells
[18] = molecular target: T1, RNA polymerase II (Mus musculus); assay: Inhibition of RNA polymerase II in mouse B16-F1 migrating cells assessed as fold change in Ano3-RNA stability at 0.1 mM measured by ChIP-seq analysis relative to control cells
[19] = molecular target: T1, RNA polymerase II (Mus musculus); assay: Inhibition of RNA polymerase II in mouse B16-F1 migrating cells assessed as fold change in Zfp146-RNA stability at 0.1 mM measured by ChIP-seq analysis relative to control cells
[20] = molecular target: T1, RNA polymerase II (Mus musculus); assay: Inhibition of RNA polymerase II in mouse B16-F1 migrating cells assessed as fold change in Tax1bp1-RNA stability at 0.1 mM measured by ChIP-seq analysis relative to control cells
[21] = molecular target: T1, RNA polymerase II (Mus musculus); assay: Inhibition of RNA polymerase II in mouse B16-F1 migrating cells assessed as fold change in Hnrnpu-RNA stability at 0.1 mM measured by ChIP-seq analysis relative to control cells
[22] = molecular target: T1, RNA polymerase II (Mus musculus); assay: Inhibition of RNA polymerase II in mouse B16-F1 migrating cells assessed as fold change in Cul5-RNA stability at 0.1 mM measured by ChIP-seq analysis relative to control cells
[23] = molecular target: T1, RNA polymerase II (Mus musculus); assay: Inhibition of RNA polymerase II in mouse B16-F1 migrating cells assessed as fold change in Ptpn12-RNA stability at 0.1 mM measured by ChIP-seq analysis relative to control cells
[24] = molecular target: T1, RNA polymerase II (Mus musculus); assay: Inhibition of RNA polymerase II in mouse B16-F1 migrating cells assessed as fold change in Zfp266-RNA stability at 0.1 mM measured by ChIP-seq analysis relative to control cells
[25] = molecular target: T1, RNA polymerase II (Mus musculus); assay: Inhibition of RNA polymerase II in mouse B16-F1 migrating cells assessed as fold change in Ect2-RNA stability at 0.1 mM measured by ChIP-seq analysis relative to control cells
[26] = molecular target: T1, RNA polymerase II (Mus musculus); assay: Inhibition of RNA polymerase II in mouse B16-F1 migrating cells assessed as fold change in Phip-RNA stability at 0.1 mM measured by ChIP-seq analysis relative to control cells
[27] = molecular target: T1, RNA polymerase II (Mus musculus); assay: Inhibition of RNA polymerase II in mouse B16-F1 migrating cells assessed as fold change in Sh3bgrl-RNA stability at 0.1 mM measured by ChIP-seq analysis relative to control cells
[28] = molecular target: T1, RNA polymerase II (Mus musculus); assay: Inhibition of RNA polymerase II in mouse B16-F1 migrating cells assessed as fold change in Mier1-RNA stability at 0.1 mM measured by ChIP-seq analysis relative to control cells
[29] = molecular target: T1, RNA polymerase II (Mus musculus); assay: Inhibition of RNA polymerase II in mouse B16-F1 migrating cells assessed as fold change in Sclt1-RNA stability at 0.1 mM measured by ChIP-seq analysis relative to control cells
[30] = molecular target: T1, RNA polymerase II (Mus musculus); assay: Inhibition of RNA polymerase II in mouse B16-F1 migrating cells assessed as fold change in Gorab-RNA stability at 0.1 mM measured by ChIP-seq analysis relative to control cells
[31] = molecular target: T1, RNA polymerase II (Mus musculus); assay: Inhibition of RNA polymerase II in mouse B16-F1 migrating cells assessed as fold change in Zfp991-RNA stability at 0.1 mM measured by ChIP-seq analysis relative to control cells

Chains of the proteins cited; added tags and fusions are not shown.
UniProt Q61188, whole entry: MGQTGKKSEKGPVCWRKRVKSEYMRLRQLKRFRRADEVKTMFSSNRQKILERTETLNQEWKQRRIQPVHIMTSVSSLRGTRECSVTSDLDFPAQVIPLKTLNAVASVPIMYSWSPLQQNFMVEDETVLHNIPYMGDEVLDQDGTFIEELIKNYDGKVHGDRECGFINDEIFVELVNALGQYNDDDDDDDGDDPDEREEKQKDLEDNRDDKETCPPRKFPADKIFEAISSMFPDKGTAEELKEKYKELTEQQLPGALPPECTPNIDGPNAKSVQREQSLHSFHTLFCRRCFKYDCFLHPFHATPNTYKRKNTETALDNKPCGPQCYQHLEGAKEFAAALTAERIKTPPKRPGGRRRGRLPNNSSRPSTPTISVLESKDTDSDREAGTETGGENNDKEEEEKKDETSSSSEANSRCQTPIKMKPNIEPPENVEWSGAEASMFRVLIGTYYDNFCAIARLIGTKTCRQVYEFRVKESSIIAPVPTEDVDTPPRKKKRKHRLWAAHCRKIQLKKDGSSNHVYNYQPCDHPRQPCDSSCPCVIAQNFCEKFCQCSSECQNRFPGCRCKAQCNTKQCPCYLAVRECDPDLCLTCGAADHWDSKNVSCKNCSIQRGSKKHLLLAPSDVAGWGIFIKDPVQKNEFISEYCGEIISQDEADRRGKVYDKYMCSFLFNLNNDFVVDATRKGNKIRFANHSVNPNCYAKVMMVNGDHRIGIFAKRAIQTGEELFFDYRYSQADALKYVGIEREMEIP

## CCCc1cc(C)[nH]c(=O)c1CNC(=O)c1cc(-c2ccnc(N3CCN(C)CC3)c2)cc2c1cnn2C(C)C
[1]
  log2FC: -0.45
[2]
  log2FC: 0.38
[3]
  log2FC: -0.41
[4]
  log2FC: -0.45
[5]
  log2FC: -0.47
[6]
  log2FC: -0.53

## OC[C@H]1O[C@@H](n2cnc3cc(Cl)c(Cl)cc32)[C@H](O)[C@@H]1O
[7]
  log2FC: 0.82
[8]
  log2FC: 0.52
[9]
  log2FC: 0.45
[10]
  log2FC: 0.43
[11]
  log2FC: 0.42
[12]
  log2FC: 0.42
[13]
  log2FC: 0.39
[14]
  log2FC: 0.38
[15]
  log2FC: -0.41
[16]
  log2FC: -0.44
[17]
  log2FC: -0.49
[18]
  log2FC: -0.5
[19]
  log2FC: -0.54
[20]
  log2FC: -0.6
[21]
  log2FC: -0.6
[22]
  log2FC: -0.61
[23]
  log2FC: -0.66
[24]
  log2FC: -0.68
[25]
  log2FC: -0.68
[26]
  log2FC: -0.75
[27]
  log2FC: -0.84
[28]
  log2FC: -0.86
[29]
  log2FC: -0.96
[30]
  log2FC: -0.99
[31]
  log2FC: -1.21

Source: ChEMBL document CHEMBL5674883, “The Heterochromatin Landscape in Migrating Cells and the Importance of H3K27me3 for Associated Transcriptome Alterations” (Cells, 2018)
